Data reported in PubChem BioAssay AID1671190 (National Center for Advancing Translational Sciences (NCATS), 2021).
Among all 580,000 compounds or so, about 6,100 (1.1%) were called active. The inconclusive results got no clear call from the source; some entries with a clear call stand among them for comparison. The call rests on the fitted dose curve; in most records, active means well fitted inhibition curve with a large enough effect; inconclusive means small, poorly fitted or top-dose-only effect, or another doubt; inactive means no such curve, though single readings can be large or run the other way. Potencies of inconclusive entries are doubtful fits and often do not repeat.

The chains behind the UniProt entries cited, without tags or fusion partners. Where a name states a change or a piece, a line headed by the entry shows the natural chain unless it says otherwise.
UniProt P18054: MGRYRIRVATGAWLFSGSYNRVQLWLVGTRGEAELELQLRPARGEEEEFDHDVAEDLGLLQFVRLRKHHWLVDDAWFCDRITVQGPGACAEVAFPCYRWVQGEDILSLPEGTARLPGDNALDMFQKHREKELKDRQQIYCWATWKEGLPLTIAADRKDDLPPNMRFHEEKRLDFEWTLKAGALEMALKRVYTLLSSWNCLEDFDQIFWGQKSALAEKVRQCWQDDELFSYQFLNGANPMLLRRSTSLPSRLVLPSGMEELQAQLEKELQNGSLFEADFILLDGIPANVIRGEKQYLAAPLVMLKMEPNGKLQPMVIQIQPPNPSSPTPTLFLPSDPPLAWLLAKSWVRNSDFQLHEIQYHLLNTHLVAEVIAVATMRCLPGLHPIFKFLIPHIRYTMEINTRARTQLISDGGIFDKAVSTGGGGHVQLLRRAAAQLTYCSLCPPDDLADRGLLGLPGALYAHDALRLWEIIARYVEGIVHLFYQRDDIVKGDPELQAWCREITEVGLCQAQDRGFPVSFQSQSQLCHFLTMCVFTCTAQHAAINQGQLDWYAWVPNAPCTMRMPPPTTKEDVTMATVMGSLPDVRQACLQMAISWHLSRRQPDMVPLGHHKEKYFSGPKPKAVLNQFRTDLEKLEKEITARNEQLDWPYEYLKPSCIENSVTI

target: Polyunsaturated fatty acid lipoxygenase ALOX12 (Homo sapiens) (UniProt P18054); assay: Primary qHTS assay for inhibitors of human arachidonate 12S-lipoxygenase (ALOX12): Round 2; conditions: purified 12hLO, xylenol orange hydroperoxide absorbance; series mostly up to 108 µM
Outline: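 Purified human 12hLO at 150 nM in 25 mM Hepes, 0.01% Triton X-100, pH 7.0, preincubated 15 min at room temperature with compound. Reaction started with 40 uM arachidonic acid, 30 min at room temperature. Hydroperoxide measured by Fe-xylenol orange, 573/405 nm absorbance ratio.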
Potency means the concentration at half of the fitted maximal effect.

Compound	Potency
Cc1csc(N(C(=O)c2ccccc2F)c2ccccc2)n1	inactive
O=C(C1CC1)N1CCC(N2C(=O)C(OCC3CC3)C23CCOCC3)CC1 (stereo not given)	inconclusive: 35.5 µM [inhibitor, partial curve, poor fit]
COc1ccccc1/C=C/C=C(\C#N)C(=O)NC(C)c1ccccc1 (stereo not given)	inactive
CCNC(=S)NCCc1ccc(Cl)cc1	inconclusive: 50.1 µM [inhibitor, partial curve, poor fit]
Cc1ccc(Sc2ccnc3cc(Cl)ccc23)cc1	inactive
CCn1nc([N+](=O)[O-])c(C(C#N)c2nc3cc(C(F)(F)F)ccc3s2)c(Cl)c1=O (stereo not given)	inconclusive: 20 µM [inhibitor, full curve, poor fit]
COCCCNC(=O)CCN(CCC(C)C)C(=O)c1cc(C)oc1C	inconclusive: 50.1 µM [inhibitor, partial curve, poor fit]
O=C(Nc1ccc(NC(=O)c2ccco2)c(Cl)c1)c1ccc2c(c1)OCCO2	inactive
Clc1ccc(-c2nnc(-c3ccccc3)o2)c(Cl)c1	inactive
CCNC(=S)Nc1ccc(F)c(Cl)c1	inconclusive: 141 µM [inhibitor, partial curve, poor fit]
O=C1CC2CCCC(C1)N2C(=O)c1ccncc1	inactive
CC1CN(C2=Nc3cccc4cccc2c34)CC(C)O1 (stereo not given)	inactive
CON(C)C(=O)/C=C/c1ccc([B-](F)(F)F)cc1	inconclusive: 100 µM [inhibitor, partial curve, poor fit]
O=C1C=CC(=O)N1CCCCCCN1C(=O)C=CC1=O	inconclusive: 4.47 µM [inhibitor, full curve]
Cc1cc(C)c2c(C)c(C(=O)NCC(c3ccco3)N3CCCC3)oc2c1 (stereo not given)	inconclusive: 22.4 µM [inhibitor, full curve, poor fit]
CC(C)(C)CC(=O)N1CC[C@@H](CC(=O)O)[C@@H](CCN2CCC[C@H]2C(N)=O)C1	inconclusive: 25.1 µM [inhibitor, full curve, poor fit]
COc1ccc(S(=O)(=O)c2nnn(-c3cc(Cl)c(OC)cc3OC)c2C)cc1	inactive
COc1ccc(C(=O)Nc2ccc(O)c3ccccc23)cc1	inconclusive: 70.8 µM [inhibitor, partial curve, poor fit]
Cc1ccc(-n2sc3cc(F)ccc3c2=O)c(C)c1	active: 0.398 µM
CCC(Sc1nc(-c2ccccc2)c(C#N)c(=O)[nH]1)C(=O)Nc1nnc(C)s1 (stereo not given)	inconclusive: 14.1 µM [inhibitor, partial curve, poor fit]
Cc1cccc(-n2c(O)c(C=Nc3ccccc3O)c3ccccc3c2=O)n1	inactive
O=C(NC1CCCc2nc(N3CCC(CO)CC3)ncc21)c1ccccn1 (stereo not given)	inconclusive: 0.794 µM [inhibitor, full curve]
Nc1scc2c(C(=O)O)nn(-c3ccccc3)c(=O)c12	inactive
CC1=NN(c2nc(-c3ccc(C)cc3)cs2)C(=O)C1N=Nc1cccc(O)c1 (stereo not given)	inconclusive: 44.7 µM [inhibitor, partial curve, poor fit]

Reformatted in markdown: five of the compounds above.

| Compound | Potency |
| --- | --- |
| CCn1nc([N+](=O)[O-])c(C(C#N)c2nc3cc(C(F)(F)F)ccc3s2)c(Cl)c1=O (stereo not given) | inconclusive: 20 µM [inhibitor, full curve, poor fit] |
| CCNC(=S)Nc1ccc(F)c(Cl)c1 | inconclusive: 141 µM [inhibitor, partial curve, poor fit] |
| Cc1cc(C)c2c(C)c(C(=O)NCC(c3ccco3)N3CCCC3)oc2c1 (stereo not given) | inconclusive: 22.4 µM [inhibitor, full curve, poor fit] |
| Cc1cccc(-n2c(O)c(C=Nc3ccccc3O)c3ccccc3c2=O)n1 | inactive |
| Nc1scc2c(C(=O)O)nn(-c3ccccc3)c(=O)c12 | inactive |

(more compounds)

Compound	Potency
O=C(CSc1nc2c([nH]c3ccccc32)c(=O)n1-c1ccc(F)cc1)NCc1ccccc1	inactive
Cc1cc(C(=O)NCC(c2ccco2)N(C)C)ccc1[N+](=O)[O-] (stereo not given)	inconclusive: 89.1 µM [inhibitor, partial curve, poor fit]
Cc1ccc(-n2cc[nH]c2=S)cc1C	inconclusive: 7.08 µM [inhibitor, full curve, poor fit]
CCN(CC)CCNC(=O)c1ccc(NC(=O)c2ccc(S(=O)(=O)N3CCCC3)cc2)cc1	inconclusive: 7.94 µM [inhibitor, full curve, poor fit]
Cc1nn(-c2ccc3nnc(C)n3n2)c2c1C(c1ccc(OCC(C)C)cc1)CC(=O)N2 (stereo not given)	inconclusive: 0.316 µM [inhibitor, full curve, poor fit]
Cn1c(=O)c2c(-c3ccccc3)n3c4ccccc4nc(-c4ccccc4)c3c2n(C)c1=O	inconclusive: 44.7 µM [inhibitor, partial curve, poor fit]
O=C1C2CC=C(Cl)CC2C(=O)N1CC1OCCc2ccccc21 (stereo not given)	active: 20 µM
O=C(OCc1cc([N+](=O)[O-])cc2c1OCOC2)C12CC3CC(CC(Br)(C3)C1)C2	inconclusive: 35.5 µM [inhibitor, partial curve, poor fit]
Cc1cc(NC(=O)CSc2nnc(C3COc4ccccc4O3)n2N)no1 (stereo not given)	inactive
Cc1c(OCC(=O)N2CCC(C(=O)O)CC2)ccc2c3c(c(=O)oc12)CCC3	inactive
CCOC(=O)c1nn(-c2ccc(C)c(C)c2)c(=O)c2c(N)scc12	inconclusive: 5.01 µM [inhibitor, full curve, poor fit]
Oc1ccc(Oc2ncc(Cl)cc2Cl)cc1	inconclusive: 112 µM [inhibitor, single point]
COc1ccc(-n2cc(CNCCc3ncc(C)[nH]3)c(-c3ccccc3Cl)n2)cc1	inactive
O=C(c1ccc(Cl)cc1)N1CC2(CCN(Cc3ccc(Cl)cc3)C2)Cc2ccccc21 (stereo not given)	active: 2 µM
Clc1ccc2c(c1)-c1[nH]ncc1CS2	inconclusive: 39.8 µM [inhibitor, partial curve, poor fit]
COc1ccccc1CNC(=O)c1cc(Br)ccc1O	inconclusive: 112 µM [inhibitor, partial curve, poor fit]
CC(=O)Nc1ccc(CNc2nc(NC(C)C)nc3cc(-c4ccccc4)sc23)cc1	active: 44.7 µM
C=CCNC(=O)[C@@H]1Cc2cn(Cc3cccnc3)c3cccc(c23)[C@H](CC(C)C)N1	inactive
Cc1ccc(S(=O)(=O)CCC(=O)OCc2cc(=O)oc3cc(C)c(C)cc23)cc1	inconclusive: 39.8 µM [inhibitor, partial curve, poor fit]
OC[C@@H]1O[C@H](CNCc2ccc(F)cc2)[C@H](N2CCN(c3ccccc3)CC2)[C@@H]1O	inconclusive: 20 µM [inhibitor, full curve]
Cc1ccc(Cn2nc(C)c(C(=O)N3CCN(S(=O)(=O)/C=C/c4ccccc4)CC3)c2C)cc1	inactive
C/C(CC(=O)Nc1ccc(Cl)c(C(F)(F)F)c1)=N\NC(N)=S	inconclusive: 79.4 µM [inhibitor, partial curve, poor fit]
Cc1ccc(C(=O)Cn2cnc3ccccc3c2=O)cc1	inactive
CCOC(=O)C(N)c1c(C)cc(C)cc1C (stereo not given)	inconclusive: 0.501 µM [inhibitor, full curve]

Compound	Potency
O=C(NC1CCCCCC1)c1ccc2c(c1)sc1nc(-c3ccc(F)cc3)cn12	inconclusive: 56.2 µM [inhibitor, partial curve, poor fit]
CCCN1C(C(=O)c2ccccc2)=C(OC(=O)COc2ccccc2)c2ccccc2S1(=O)=O	inconclusive: 89.1 µM [inhibitor, partial curve, poor fit]
CC1CCCCC1NC(=O)/C=C/c1cccs1 (stereo not given)	inactive
COc1cc2c(=O)c(S(=O)(=O)c3ccc(F)cc3)cn(Cc3ccc(Cl)cc3)c2cc1OC	inconclusive: 112 µM [inhibitor, partial curve, poor fit]
COc1ccc(NC(=O)c2oc3ccccc3c2NC(=O)c2ccc3c(c2)OCO3)cc1	inactive
O=C(NCc1ccccc1F)N1C[C@@H](CN2CCCCC2)[C@@H](CO)C1	inactive
CC1(C)O[C@@H]2C[C@H]3[C@@H]4CCC5=CC(=O)CC[C@]5(C)[C@@]4(F)[C@@H](O)C[C@]3(C)[C@]2(C(=O)CCl)O1	inactive
CNC(=O)CCn1ncc2cc(OCc3ccccc3-c3ccc(OC)cc3Cl)ccc21	inconclusive: 50.1 µM [inhibitor, partial curve]
Cc1ccc(NC(=O)Cc2c[nH]c3ccccc23)cc1F	inconclusive: 100 µM [inhibitor, single point]
Cc1cc(OCCN2CCCC2)cc(C(C)C)c1	inconclusive: 0.224 µM [inhibitor, full curve]
O=C(c1ccc(Cl)cc1)N1CCNc2cnc(Nc3cccc(C(F)(F)F)c3)nc2C1	inconclusive: 50.1 µM [inhibitor, partial curve]
CC(C)(C)c1nc2c(s1)CCc1onc(-c3ccc(Br)cc3)c1-2	inconclusive: 63.1 µM [inhibitor, partial curve, poor fit]
COc1ccccc1-c1sc2ccccc2c1-c1ccc2c(c1)OCCO2	inactive
O=C(O)c1cc([N+](=O)[O-])cc2c1C=Cc1ccccc1O2	inconclusive: 4.47 µM [inhibitor, full curve, poor fit]
COc1ccc(N2CC(C(=O)N[C@@H](C)C(=O)NCc3ccccc3OC)CC2=O)cc1 (stereo not given in full)	inactive
Cc1cc(NC(=O)CN2CCCCC2)no1	inconclusive: 35.5 µM [inhibitor, full curve, poor fit]
Brc1cnc2nc[nH]c2c1	inconclusive: 126 µM [inhibitor, single point]
COCCOC1CCN(C(=O)NCc2ccc(F)cc2)CC1	inactive
COCc1nc(C2CC(N)C2)cc(N2CCC3(CC2)CNC(=O)O3)n1 (stereo not given)	inconclusive: 17.8 µM [inhibitor, partial curve]
CCOc1ccccc1/C=N/n1c(C)nc2ccccc2c1=O	inactive
c1ccc(-c2ccccc2OCCCN2CCCCCC2)cc1	inconclusive: 20 µM [inhibitor, partial curve, poor fit]
O=C(c1cnn2c(C(F)F)cc(-c3ccccc3)nc12)N1CCN(Cc2ccc3c(c2)OCO3)CC1	inconclusive: 112 µM [inhibitor, single point]
